These are yes or no findings as the source states them, for the method shown. Some results given as binding are weak or reduced against the parent protein; the word gives no strength. Where a sequence is shown, tags or fusion partners need not be part of it.
Target: T1, IND-BD (UniProt O81313)
T1 sequence: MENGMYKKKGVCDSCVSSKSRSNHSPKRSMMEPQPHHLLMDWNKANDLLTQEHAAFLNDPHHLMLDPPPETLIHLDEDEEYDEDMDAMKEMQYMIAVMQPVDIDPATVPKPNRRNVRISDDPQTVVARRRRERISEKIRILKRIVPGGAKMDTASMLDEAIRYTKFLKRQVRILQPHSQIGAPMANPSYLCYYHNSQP
Experiment: two-hybrid; pGADT7 (prey) and pGBKT7 (bait) fusions in yeast strain AH109; selective medium lacking Leu, Trp, His and Ade

B1: SPT-AD (protein, UniProt Q9FUA4 1-373)
chain: MISQREEREEKKQRVMGDKKLISSSSSSSVYDTRINHHLHHPPSSSDEISQFLRHIFDRSSPLPSYYSPATTTTTASLIGVHGSGDPHADNSRSLVSHHPPSDSVLMSKRVGDFSEVLIGGGSGSAAACFGFSGGGNNNNVQGNSSGTRVSSSSVGASGNETDEYDCESEEGGEAVVDEAPSSKSGPSSRSSSKRCRAAEVHNLSEKRRRSRINEKMKALQSLIPNSNKTDKASMLDEAIEYLKQLQLQVQMLTMRNGINLHPLCLPGTTLHPLQLSQIRPPEATNDPLLNHTNQFASTSNAPEMINTVASSYALEPSIRSHFGPFPLLTSPVEMSREGGLTHPRLNIGHSNANITGEQALFDGQPDLKDRIT
- binding: binds
